Consider 26 compounds from the supplement of paper PMC11348887.

SMILES strings stand for the structures. Where a name gives a salt, the structure may show the parent alone. The list shows a part of the results. Most values lie at the level of the controls, where differences are scatter.

Holding throughout (conditions): 5 µM; treatment: days 7-14 after plating, readout day 21
Test [1] deals with hPSC-derived cortical neurons (WA09). Nature of the test: nucleus area z-score vs screen plate; higher = larger nuclei (more mature).
The test system is the same in test [2]. Kind of test: total neurite length per nucleus (MAP2) z-score; higher = more neurite growth.
The test system is the same in test [3]. Kind of test: nucleus roundness z-score vs screen plate; higher = rounder nuclei (more mature).
For test [4] the test system is unchanged. Kind of test: KCl-induced FOS+/EGR-1+ double-positive nuclei fraction z-score (KCl minus unstimulated); higher = stronger activity-induced IEG response.

`Nc1nc(OCc2cc(Br)cs2)c2[nH]cnc2n1` [Lomeguatrib] returned a nucleus area z-score in test [1] of 2.87. Moreover, in test [2], the “total neurite length per nucleus (z-score)” value is -0.195. For the same compound, in test [3], the nucleus roundness z-score was -0.688. Also, the “KCl-induced FOS+/EGR-1+ double-positive nuclei fraction z-score” value in test [4] was -0.0471.
With `CN(C)CCOC(c1ccccc1)c1ccccc1` [Diphenhydramine HCl], the nucleus area z-score in test [1] was 0.578. Moreover, in test [2], the “total neurite length per nucleus (z-score)” value was -0.305. The compound also registered a nucleus roundness z-score in test [3] of -0.242. For the same compound, in test [4], the “KCl-induced FOS+/EGR-1+ double-positive nuclei fraction z-score” value amounted to 0.0794.
On the same counts, the results for `COc1cc2nc(N(C)CCCNC(=O)C3CCCO3)nc(N)c2cc1OC` (centres undefined) [Alfuzosin HCl] are -0.627, -0.844, -1.24 and -0.603.
On the same counts, the results for `Cc1ccc(NC(=O)c2cccc(C(C)(C)C#N)c2)cc1Nc1ccc2ncn(C)c(=O)c2c1` are 0.378, 1.04, 0.599 and 0.68.
In turn, `Nc1nc(NCCc2ccc(O)cc2)nc2nc(-c3ccco3)nn12` showed a nucleus area z-score in test [1] of -0.0445. The “total neurite length per nucleus (z-score)” value in test [2] amounted to 0.846. In test [3], this compound came in with a nucleus roundness z-score of 0.906. Moreover, the “KCl-induced FOS+/EGR-1+ double-positive nuclei fraction z-score” value in test [4] was 0.589.
In the case of `C=CCn1c(=O)c2cnc(Nc3ccc(N4CCN(C)CC4)cc3)nc2n1-c1cccc(C(C)(C)O)n1`, the nucleus area z-score in test [1] was -0.103. In addition, in test [2], the “total neurite length per nucleus (z-score)” value was 0.104. Moreover, in test [3], the nucleus roundness z-score is 0.0173. For the same compound, the “KCl-induced FOS+/EGR-1+ double-positive nuclei fraction z-score” value in test [4] is -0.305.
Turning to `CC[C@@H]1C(=O)OC[C@@H]1Cc1cncn1C` [Pilocarpine HCl], in test [1], the nucleus area z-score was -0.179. For the same compound, the “total neurite length per nucleus (z-score)” value in test [2] was -0.582. The same compound returned a nucleus roundness z-score in test [3] of -1.22. Besides, the “KCl-induced FOS+/EGR-1+ double-positive nuclei fraction z-score” value in test [4] was -0.421.
On the same counts, the results for `CCCNC(C)C(=O)Nc1c(C)csc1C(=O)OC` (centres undefined) [Articaine HCl] are -0.163, 0.0295, -0.092 and -0.0258.
On the same counts, the results for `N[C@H]1CC[C@H](N[C@@H]2C[C@H]2c2ccccc2)CC1` are 1.18, -0.169, -0.659 and 1.5.
`COc1ccc2c(c1)C(=O)N(CCc1ccc(S(=O)(=O)NC(=O)NC3CCCCC3)cc1)C(=O)C2(C)C` [Gliquidone] had a nucleus area z-score in test [1] of 0.59. The “total neurite length per nucleus (z-score)” value in test [2] was 0.808. Besides, in test [3], the nucleus roundness z-score was found to be 1.2. Further, the “KCl-induced FOS+/EGR-1+ double-positive nuclei fraction z-score” value in test [4] was determined as 0.518.
In test [1], `C[C@H]1O[C@@H](Oc2c(-c3cc(O)c(O)c(O)c3)oc3cc(O)cc(O)c3c2=O)[C@@H](O)[C@@H](O)[C@@H]1O` [Myricitrin] gave a nucleus area z-score of 0.519. The “total neurite length per nucleus (z-score)” value in test [2] came to 0.864. The same compound registered a nucleus roundness z-score in test [3] of 0.463. In addition, in test [4], the “KCl-induced FOS+/EGR-1+ double-positive nuclei fraction z-score” value is 0.365.
On the same counts, the results for `CCOC(=O)N1c2ccc(C(F)(F)F)cc2[C@@H](N(Cc2cc(C(F)(F)F)cc(C(F)(F)F)c2)C(=O)OC)C[C@H]1CC` [Torcetrapib] are 0.232, -0.814, -1.31 and -0.0738.
On the same counts, the results for `CCC(=O)NCC[C@@H]1CCc2ccc3c(c21)CCO3` [Ramelteon] are -0.5, 0.0949, 0.333 and 2.16.
On the same counts, the results for `Cc1ccc(Cl)c(Nc2ccccc2C(=O)O)c1Cl` [Meclofenamate Sodium] are 1.37, 0.0348, -1.85 and 0.00604.
In the case of `O=C(c1ccc(/C=C/c2n[nH]c3ccccc23)cc1)N1CCNCC1`, the nucleus area z-score in test [1] came to 0.675. Also, the “total neurite length per nucleus (z-score)” value in test [2] is 2.16. The nucleus roundness z-score in test [3] was 2.23. In addition, in test [4], the “KCl-induced FOS+/EGR-1+ double-positive nuclei fraction z-score” value was determined as 0.473.
On the same counts, the results for `CN1CC(=O)NC1=N` [Creatinine] are 0.463, 0.22, 0.587 and 0.666.
In turn, `N#Cc1ccc2[nH]c(O)c(-c3ccc(CN4CCOCC4)cn3)c2c1` gave a nucleus area z-score in test [1] of -0.956. Moreover, the “total neurite length per nucleus (z-score)” value in test [2] is -1.66. In test [3], this compound returned a nucleus roundness z-score of -1.25. In addition, the “KCl-induced FOS+/EGR-1+ double-positive nuclei fraction z-score” value in test [4] was 0.0201.
On the same counts, the results for `CCOC(=O)[C@H](CCc1ccccc1)N[C@@H](C)C(=O)N1Cc2ccccc2C[C@H]1C(=O)O` [Quinapril HCl] are 0.41, -0.22, 0.257 and -0.23.
On the same counts, the results for `NCCCC[C@@H]1NC(=O)[C@@H](Cc2ccccc2)NC(=O)[C@H](CC(=O)O)NC(=O)CNC(=O)[C@H](CCCN=C(N)N)NC1=O` [Cyclo (-RGDfK)] are 2.08, -0.584, -0.0253 and 0.557.
On the same counts, the results for `CN(C)CC[C@H](CSc1ccccc1)Nc1ccc(S(=O)(=O)NC(=O)c2ccc(N3CCN(Cc4ccccc4-c4ccc(Cl)cc4)CC3)cc2)cc1[N+](=O)[O-]` are -0.341, 0.858, -2.86 and 1.3.
For `CC[C@H](Nc1ncnc2[nH]cnc12)c1nc2cccc(F)c2c(=O)n1-c1ccccc1` [CAL-101 (Idelalisib_ GS-1101)], the nucleus area z-score in test [1] was -0.42. The “total neurite length per nucleus (z-score)” value in test [2] worked out at 0.25. The same compound yielded a nucleus roundness z-score in test [3] of 0.449. The “KCl-induced FOS+/EGR-1+ double-positive nuclei fraction z-score” value in test [4] came out at 1.41.
`NCCc1c[nH]cn1` [Histamine 2HCl] registered a nucleus area z-score in test [1] of -0.532. Also, the “total neurite length per nucleus (z-score)” value in test [2] is 0.239. Moreover, the nucleus roundness z-score in test [3] amounted to 0.375. Besides, in test [4], the “KCl-induced FOS+/EGR-1+ double-positive nuclei fraction z-score” value is -1.96.
For `CC1C(=O)OC2C(O)C34C5CC(C(C)(C)C)C36C(OC(=O)C6O)OC4(C(=O)O5)C12O` (centres undefined) [Ginkgolide B], the nucleus area z-score in test [1] is -0.0879. Besides, the “total neurite length per nucleus (z-score)” value in test [2] is 0.727. In test [3], this compound displayed a nucleus roundness z-score of 0.529. Moreover, the “KCl-induced FOS+/EGR-1+ double-positive nuclei fraction z-score” value in test [4] turned out to be 0.603.
On the same counts, the results for `CC1(C)[C@@H](OC(=O)CCC(=O)O)CC[C@]2(C)[C@H]3C(=O)C=C4[C@@H]5C[C@@](C)(C(=O)O)CC[C@]5(C)CC[C@@]4(C)[C@]3(C)CC[C@@H]12` [Carbenoxolone Sodium] are 0.706, -0.0451, 1.05 and 0.57.
In the case of `CN1CCN(c2ccc(C(=O)Nc3n[nH]c4ccc(Cc5cc(F)cc(F)c5)cc34)c(NC3CCOCC3)c2)CC1` [Entrectinib (RXDX-101)], the nucleus area z-score in test [1] was -14.6. The “total neurite length per nucleus (z-score)” value in test [2] was -4.17. Besides, the nucleus roundness z-score in test [3] is -5.46. Also, the “KCl-induced FOS+/EGR-1+ double-positive nuclei fraction z-score” value in test [4] is -2.51.
On the same counts, the results for `O=C(Oc1cc(S(=O)(=O)c2ccccc2)ccc1[N+](=O)[O-])c1ccc(Cl)cc1` are 2.49, -0.181, -0.46 and 0.63.
